These results are taken from PubChem BioAssay AID376 (PDSP, 2006).

By UniProt entry, the sequences of proteins in these tests, tags left out. Where a name states a change or a piece, a line headed by the entry shows the natural chain unless it says otherwise.
UniProt Q12809: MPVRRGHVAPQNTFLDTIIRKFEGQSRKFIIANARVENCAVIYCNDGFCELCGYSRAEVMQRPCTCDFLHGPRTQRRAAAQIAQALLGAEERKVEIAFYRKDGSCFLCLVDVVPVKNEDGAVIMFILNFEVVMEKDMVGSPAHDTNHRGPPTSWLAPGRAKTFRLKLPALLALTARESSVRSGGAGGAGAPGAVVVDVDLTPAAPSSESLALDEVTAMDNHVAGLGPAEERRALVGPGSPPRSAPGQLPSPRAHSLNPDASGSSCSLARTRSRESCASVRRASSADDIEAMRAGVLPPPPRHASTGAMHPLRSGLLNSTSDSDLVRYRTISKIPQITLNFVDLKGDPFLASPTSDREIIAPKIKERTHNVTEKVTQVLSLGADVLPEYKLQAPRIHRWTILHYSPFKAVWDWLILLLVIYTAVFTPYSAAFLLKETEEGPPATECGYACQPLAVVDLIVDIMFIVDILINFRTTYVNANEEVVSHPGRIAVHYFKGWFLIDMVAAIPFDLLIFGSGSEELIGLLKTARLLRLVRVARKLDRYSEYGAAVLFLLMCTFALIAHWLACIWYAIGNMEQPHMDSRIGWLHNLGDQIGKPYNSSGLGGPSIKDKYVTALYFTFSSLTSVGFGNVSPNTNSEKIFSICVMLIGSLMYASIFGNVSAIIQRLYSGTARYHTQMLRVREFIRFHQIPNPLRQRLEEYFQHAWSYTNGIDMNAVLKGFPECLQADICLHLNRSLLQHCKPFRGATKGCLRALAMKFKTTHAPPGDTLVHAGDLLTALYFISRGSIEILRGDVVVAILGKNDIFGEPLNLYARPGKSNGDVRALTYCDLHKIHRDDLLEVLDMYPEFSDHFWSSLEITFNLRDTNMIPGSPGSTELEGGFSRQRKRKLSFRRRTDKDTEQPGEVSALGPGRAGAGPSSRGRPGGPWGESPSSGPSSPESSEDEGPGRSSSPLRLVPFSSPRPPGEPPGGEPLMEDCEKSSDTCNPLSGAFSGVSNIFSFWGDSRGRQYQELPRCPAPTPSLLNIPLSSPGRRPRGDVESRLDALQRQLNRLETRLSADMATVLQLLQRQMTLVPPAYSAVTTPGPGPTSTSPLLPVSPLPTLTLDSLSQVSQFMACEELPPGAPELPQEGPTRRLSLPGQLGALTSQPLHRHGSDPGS

The structures appear in SMILES notation. This list holds what a sample rich in hits left over. The source made the active and inactive calls. Cut-off read from the data, not from the text of the source: active = hERG blockade below about -20% or above about 20%; inactive = in between.

The target of the experiment is Voltage-gated inwardly rectifying potassium channel KCNH2 (Homo sapiens) (UniProt Q12809). Nature of the experiment: KCNH2 potassium channel function modulators, cell-based (AID 376).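 Note: 0% = buffer alone and 100% = reference blocker.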 The settings on record: hERG-expressing cells, channel activity single-concentration screen; concentration not given here. On the technique in general: hERG is a cardiac potassium channel; its block is linked to QT prolongation.
Consider `CN1C2CCC1CC(OC(=O)C(O)c1ccccc1)C2` (stereo unspecified), for which the hERG blockade is inactive: -16.6%.
